From ChEMBL document CHEMBL3988442, “University of Dundee, Small-Polar-MMV Screening Library” (2021).

Each number is a percent effect as filed.
The record does not define 0% and 100%; most values in the screen are far below 50% and negative numbers occur (in some assays of this library far below -100).
This is an unselected part of the compounds tested.
Two or more numbers in one place are separate tests of the same structure; such repeats can differ widely.

Mtb cholesterol medium: 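Phenotypic screen: M. tuberculosis growth, cholesterol and DPPC medium, 4 days; the read-out is not stated. Tested at 50 µM. Direction is inferred from retests: higher values go with more growth inhibition. Of about 69,000 compounds tested this way, about 370 (0.54%) reached 50% or more in at least one test.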
Mtb glucose medium: 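Phenotypic screen: M. tuberculosis growth, glucose 7H9 medium, 3 days; the read-out is not stated. Compounds at 50 µM. The record gives no direction; compounds that gave an IC50 in retests scored well above the rest, so higher reads as more growth inhibition. Of about 69,000 compounds tested this way, about 760 (1.1%) reached 50% or more in at least one test.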

SMILES,Mtb cholesterol medium,Mtb glucose medium
CCCc1ccc2oc(C(=O)N3CCN(CCOC)CC3)c(C)c2c1,63.66%,66.74%
CC1(C)CN(C(=O)c2cnc(-c3ccccn3)nc2)CC[C@]1(C)O,0.5956%,14.58%
O=C(CCS(=O)(=O)C1CCCC1)NCCc1cccnc1,4.694%,20.66%
Cn1cnn(CC(=O)NCc2ccccc2F)c1=O,-7.436%,-13.54% & -1.286%
COc1ccc(-c2csc(N)c2C#N)cc1,5.243%,5.913%
CN([C@@H]1CC[C@@H](N2CCOCC2)[C@@H]1O)S(=O)(=O)c1ccccc1,-5.11% & -17.23%,-33.86%
CCc1ccc(CN2C[C@@H](C)C3(CCN(CC(=O)N(C)C)C3=O)C2)o1.O=C(O)C(F)(F)F (stereo partly shown),-0.03773%,11.01%
CCC1CCCCN1Cc1ncc(C(C)(C)C)o1 (stereo not shown),-23.41%,9.753%
Cc1[nH]ccc1C(=O)N1CCC2(CC1)c1nc[nH]c1CCN2CC(C)C,2.122%,-29.63%
CC(C)c1nc(CN2CCCC(Cn3cncn3)C2)cs1 (stereo not shown),-43.16%,-67.68%
CNc1[nH]nc(N)c1C(=O)Nc1ccccc1,3.805%,-41.63%
CCOc1cccc(C(C)NC(=O)N2CCC(C(N)=O)CC2)c1 (stereo not shown),8.161%,-9.306%
O=C1OCCN1Cc1ccc(C(F)(F)F)cc1F,-4.636%,-0.6641%
Cc1cc(CCC(=O)NCc2nccn2C)ccc1Br,-6.446%,-5.028%
CC(C)N1CCC2(CC1)C(=O)N(c1cccnc1)c1c(F)cccc12.Cl,8.399%,-3.192% & -10%
CCn1nc(C)cc1C(=O)NCc1cc(N(C)C)nc2ccccc12,13.72%,24.79%
Cc1ccccc1CN(CCN(C)C)Cc1ccccc1C(=O)O,20.87%,-21.66%
O=C(NCC[S+]([O-])Cc1ccccc1)c1ccc2[nH]c(=O)[nH]c2c1 (stereo not shown),11.51%,-9.989%
Cc1nnc2n1CCN(CCOc1cccc(C#N)c1)C2,-1.611%,-0.5739%
c1cnnc(N2CCCC2CNCc2nc(-c3ccoc3)no2)c1 (stereo not shown),-24.34%,-0.6752%
CCOc1cccc2c1OCC(C(=O)NS(=O)(=O)Cc1ccccc1)=C2,-6.218%,12.04%
N#CCCCn1cnc2c(F)cc(Br)cc2c1=O,-10.91% & -0.8486%,-8.087%
OC(CN(Cc1ccccc1)Cc1cccnc1)c1ccco1 (stereo not shown),20.64%,15.65%
Cc1ncsc1C(=O)OCCN1CCCc2ccccc21,16.99%,30.73%
CN(Cc1ccncc1)C(=O)Nc1cnn(CC2CCCO2)c1 (stereo not shown),-10.05%,-33.17%
CN(C)c1ncccc1CNC(=O)N1CCCC1CN1CCCCC1 (stereo not shown),-20.39%,-6.705%
CC(CN1CCCC1=O)NC(=O)c1ccc(C(F)(F)F)[nH]c1=O (stereo not shown),-18.13%,-15.83%
COc1cc(N2CCC3(CC2)CC(N2CCOCC2)C3)ncn1.O=C(O)C(F)(F)F,24.83%,3.96%
CCC(NC(=O)CC(F)(F)F)c1ccccc1OCC(=O)N1CCCC1 (stereo not shown),-12.5%,-16.63%
CCc1nccn1C1CCCN(C(=O)c2ccnc(N(C)C)c2)C1 (stereo not shown),1.324%,44.02%
COCCn1ccc(NC(=O)Nc2ccncc2)n1,-6.671%,-10.38%
CN1CCCC1c1cncc(C(=O)NCCN2CCCCC2)n1 (stereo not shown),8.596%,9.714%
CCOCC1CN(C(=O)c2ccco2)Cc2cnn(C)c21 (stereo not shown),-28.6%,-35.89%
O=C(Nc1ccc(CCN2CCSCC2)cc1)NC1CC1,-4.977%,-17.59%
COc1cc(CNC(=O)N2CCCC2c2cc(C)no2)ccn1 (stereo not shown),9.913%,-7.228%
N#Cc1cccc(S(=O)(=O)Nc2c(F)cccc2N2CCCC2)c1,8.23%,-4.815%
CCCn1ncc(-c2ccnc(NC3CC(C)(C)NC(C)(C)C3)n2)c1C,-9.897% & -1.574%,3.544% & 1.469%
CCO[C@H]1COC[C@@H]1NC(=O)c1c[nH]nc1C1CCCCC1,-31.73%,-26.49%
Cc1c(CN2Cc3nccn3CC2c2ccccc2)cnn1C (stereo not shown),-17.96% & -5.801%,4.374%
COCCn1c2c(ccc1=O)CC(NCc1cnn(C)c1)CC2 (stereo not shown),-11.38%,-15.15%
Cc1ccc(S(=O)(=O)NC(=O)CCc2cscn2)cc1Cl,-32.88%,-10.57%
CCN(C(=O)c1ccc2nncn2c1)C(C)Cc1ccc(OC)cc1 (stereo not shown),-14.81%,9.664%
COc1ccc(CNCC2CNc3ccnn3C2)cn1 (stereo not shown),6.999%,23.76%
Fc1cccc(CN2CCC[C@@H](Cn3nnc(-c4ccccn4)n3)C2)c1,-13.4% & -21.43%,-21.97%
[H][C@]12CN(Cc3cccc(F)c3)C(=O)[C@@]1([H])CN(S(=O)(=O)CC)C2,-6.888%,-1.543%
[H][C@@]12CN(c3ccc(C)nn3)C[C@@H](C(=O)NCc3ccco3)[C@]1([H])CCO2,-28.56%,13.63%
[H][C@]12CC(=O)N(C(C)C)[C@@]1([H])CCN2C(=O)c1ccco1,-15.25%,-38.25%
Cc1ncccc1Oc1nccnc1C1CCCN(C(C)C)C1 (stereo not shown),-10.25%,-0.9708%
CC(C)NC(=O)c1nnn(-c2ccccc2)c1C1CC1,-9.604%,-17.53%
O=C(O)C(F)(F)F.[H][C@@]12CN(Cc3cnn(C)c3)CCO[C@]1([H])CN(S(=O)(=O)CCC)C2,-5.89% & -9.663%,-5.854% & -25.87%
CCC1CN(CC(=O)NC(C)C)CCO1 (stereo not shown),8.151%,17.6%
[H][C@]12CN(C(=O)c3ccno3)CCN1C(=O)N(Cc1ccc(C)cc1)C2,18.07%,-12.05% & 4.08%
Cc1occc1C(=O)NCC(=O)N1CCCC(c2ccccc2)CC1 (stereo not shown),-5.498%,5.779% & 9.624%
CC(C)c1nc(CN2CCCC2CN2CCCC2)cs1 (stereo not shown),15.01%,29.38%
CC(C)Oc1cccc(CNC(=O)NC2(CO)CCCC2)c1,2.459%,-35.6%
COc1ccccc1CC(=O)N1CCCC(n2nc(C)nc2C)C1 (stereo not shown),-4.883%,-8.956%
COc1cc(C)nc(N2CCN(C(=O)CSC)CC2)n1,1.522%,-8.181%
Cc1cnn(CC2CN(Cc3nc4ccccc4n3C)CCO2)c1 (stereo not shown),-18.78%,2.729%
COCc1cccc(NC(=O)N(C)Cc2ncc(C)c(OC)c2C)c1,29.97%,29.68%
[H][C@]12CCCCN1CCC[C@@]2(O)CN1CCN(Cc2ccncc2)CC1,11.53%,-6.508%
O=C(NCCNC(=O)C1CCN(c2ncccn2)CC1)c1ccoc1,-38.34%,-20.06% & -7.479%
Cn1cc(N2CC3(CCN(CC4CC4)CC3)OCC2=O)cn1.O=C(O)C(F)(F)F,3.986%,16.95%
Cc1cc(F)ccc1S(=O)(=O)N1C[C@@H](C)[C@@](C)(O)C1,-2.119%,4.505%
Cc1ccc(NC(=O)N2CCCC(O)C2)c(Br)c1 (stereo not shown),-4.651%,-13.43%
CCC(=O)c1ccc(OCC(=O)NCC2CCCO2)cc1 (stereo not shown),-0.6778%,3.254%
CCOc1cncc(N(C)CC(=O)NC)n1,-1.576%,-48.25% & 6.054%
[H][C@]12CC[C@]([H])(CN(S(=O)(=O)c3cn(C)cn3)C1)N(Cc1ccccn1)C2,-7.004%,-14.59%
CCC(CNC(=O)C1CC1)(OC)c1ccccc1 (stereo not shown),4.717%,1.062% & -14.94%
Cc1cnc(-c2nc(C3CCCN(Cc4ccccc4C)C3)no2)cn1.Cl (stereo not shown),-1.725% & -22.48%,-21.81%
CCn1c(CN(C)C)nnc1C1CCN(c2ccnc(C)c2)CC1,-34.37%,-7.993% & -14.85%

Once more, the final 7:

SMILES,Mtb cholesterol medium,Mtb glucose medium
Cc1ccc(NC(=O)N2CCCC(O)C2)c(Br)c1 (stereo not shown),-4.651%,-13.43%
CCC(=O)c1ccc(OCC(=O)NCC2CCCO2)cc1 (stereo not shown),-0.6778%,3.254%
CCOc1cncc(N(C)CC(=O)NC)n1,-1.576%,-48.25% & 6.054%
[H][C@]12CC[C@]([H])(CN(S(=O)(=O)c3cn(C)cn3)C1)N(Cc1ccccn1)C2,-7.004%,-14.59%
CCC(CNC(=O)C1CC1)(OC)c1ccccc1 (stereo not shown),4.717%,1.062% & -14.94%
Cc1cnc(-c2nc(C3CCCN(Cc4ccccc4C)C3)no2)cn1.Cl (stereo not shown),-1.725% & -22.48%,-21.81%
CCn1c(CN(C)C)nnc1C1CCN(c2ccnc(C)c2)CC1,-34.37%,-7.993% & -14.85%